Results: publication PMC6387362

Experiments:
[1] = biological target: MPD2-GFP (membrane proximal domain of TRPV2 fused to sfGFP) (UniProt Q9WUD2); assay: pull-down; purified MPD-GFP added to lysates of HEK293 cells transfected with MYC-tagged Snapin or Synaptotagmin-IX, 2 h at 4 °C; MPD-GFP immobilised on GFP-Trap A beads, 2 h at 4 °C; washed with lysis buffer; immunoblot; only the target purified
[2] = biological target: MPD1-GFP (membrane proximal domain of TRPV1 fused to sfGFP) (UniProt O35433); assay: as above

binding [1]: binds
binding [2]: binds
B1: Snapin c-myc-tagged (protein, UniProt O95295 1-136)
chain: MAGAGSAAVSGAGTPVAGPTGRDLFAEGLLEFLRPAVQQLDSHVHAVRESQVELREQIDNLATELCRINEDQKVALDLDPYVKKLLNARRRVVLVNNILQNAQERLRRLNHSVAKETARRRAMLDSGIYPPGSPGK

No constants are given. Whether binding was seen depends on the method and setting. Binding seen in cells or lysates may run through a third protein. A result given as binding can be weak or reduced; the word gives no strength. Tags and fused reporters may be left off the sequences shown.
